# Measurements as given in PMC7819943, “Rice protein-binding microarrays: a tool to detect cis-acting elements near promoter regions in rice”.
# This is one part of the list.
# Biological target: T1, OsSMF1 (Oryza sativa, UniProt Q6ZLB0 1-436)
# T1 sequence: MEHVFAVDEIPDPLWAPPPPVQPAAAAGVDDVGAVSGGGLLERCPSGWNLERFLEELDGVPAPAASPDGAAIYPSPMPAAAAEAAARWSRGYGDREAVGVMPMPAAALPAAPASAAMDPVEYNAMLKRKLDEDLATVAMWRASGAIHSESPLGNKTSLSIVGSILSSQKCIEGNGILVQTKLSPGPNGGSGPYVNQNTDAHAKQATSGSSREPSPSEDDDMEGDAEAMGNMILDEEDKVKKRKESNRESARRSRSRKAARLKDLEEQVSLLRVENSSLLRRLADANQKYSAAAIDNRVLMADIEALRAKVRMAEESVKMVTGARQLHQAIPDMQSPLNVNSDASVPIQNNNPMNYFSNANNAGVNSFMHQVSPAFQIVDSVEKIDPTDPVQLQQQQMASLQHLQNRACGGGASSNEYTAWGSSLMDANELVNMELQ
# Experiment: protein-binding microarray (RPBM); PBS, 2% BSA, 51.3 ng/ul salmon testes DNA, 50 uM zinc acetate, 200 nM TF, 25 C, 1 h; high values mean tight binding
# Settings: protein: recombinant; tags: N-terminal polyhistidine and DsRed monomer fusion (pET32a); chain copies: 2; label: CyDye5-dUTP incorporated in the synthesized complementary strand; 3' TTTTT single-stranded linker to array surface; dsDNA, one strand shown
# Procedure, shortened: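 For the binding signal, per-feature fluorescence intensity was read in arbitrary units on an Axon 4000B scanner. Before scanning, a 2% BSA-blocked custom Agilent array made double-stranded with Cy5-dUTP was washed after 1 h at 25 °C with 200 nM protein and 50 µM zinc acetate. The proteins were Ni–NTA-purified transcription factors with N-terminal polyhistidine and DsRed fusions, expressed in E. coli BL21-CodonPlus.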
row,Sequence,binding signal
1,AGCAAACGGCCGTCTGCCACGTCACATTCGCCGCCCTCTGCGGAGTCACCTAGTGCAG,33700 fluorescence intensity (a.u.)
2,GTTCGTTTTGATGTGTCAATGGATTGGTGGACCCGTGGATCGGAGTCACCTAGTGCAG,4640 fluorescence intensity (a.u.)
3,GTGGAAGGAAGGCTCTCGAGTCTGGAAGCCGCATCGCGCTCGGAGTCACCTAGTGCAG,3330 fluorescence intensity (a.u.)
4,TTTTCCGCCTCGTCTTTTCGCTTATGCTTATATTTATCAGCGGAGTCACCTAGTGCAG,3310 fluorescence intensity (a.u.)
5,CACACCAACGTTTTCTTTGTGCAGACACATTCTTACATGTCGGAGTCACCTAGTGCAG,3360 fluorescence intensity (a.u.)
6,CGCCGAGGGGAGGGGAGGGGAGGTTGCCATTGTTGTCCATCGGAGTCACCTAGTGCAG,5320 fluorescence intensity (a.u.)
7,CACGCGTCAAACACCGGTTCCACGTGAGGAAGCTGAGCTCCGGAGTCACCTAGTGCAG,5240 fluorescence intensity (a.u.)
8,ATGAACAATGACAGATTATGATTTATGCAACGAAAACCTGCGGAGTCACCTAGTGCAG,3210 fluorescence intensity (a.u.)
9,AATGATCAATATTGGCACGATGACTGTGTTTATTTCCTTTCGGAGTCACCTAGTGCAG,6240 fluorescence intensity (a.u.)
10,CCCTGCTGGCTGTGCAGACAACGCAAGCGTGGCACATGTGCGGAGTCACCTAGTGCAG,3920 fluorescence intensity (a.u.)
11,TCACCAAATAGTTCTGACACGTGGCGCACTAGTTATTGTACGGAGTCACCTAGTGCAG,10200 fluorescence intensity (a.u.)
12,CCACGTGTAATTACCGATCTGCCCCTCCCAGCCCACGTCACGGAGTCACCTAGTGCAG,9660 fluorescence intensity (a.u.)
13,ACCTGTGGACTTGCACGGTAACGTAGCACAATCTTCAAAGCGGAGTCACCTAGTGCAG,3810 fluorescence intensity (a.u.)
14,TGCCATCCACGAGTCGCACACTCGTAAGCCACGTCGCCACCGGAGTCACCTAGTGCAG,8550 fluorescence intensity (a.u.)
15,CCTTCCCTAGGGGCGGAGCCACGTAGCTTGGGCCCCACACCGGAGTCACCTAGTGCAG,6430 fluorescence intensity (a.u.)
16,CGTCTATCCCCACAGCCACACAACGTGTCCTCAAATTCCGCGGAGTCACCTAGTGCAG,3720 fluorescence intensity (a.u.)
17,CGGACTGAGCTGCCTCGCCCGCCTCCGAGCAGTTGGGGAACGGAGTCACCTAGTGCAG,40900 fluorescence intensity (a.u.)
18,TAGCATAGCCTAATCACCGTCTCCTTCATCTCTAATCACGCGGAGTCACCTAGTGCAG,4220 fluorescence intensity (a.u.)
19,CGTCACCTCCACCGCCGCCTTGCTCCCTGAGCCGACGCCACGGAGTCACCTAGTGCAG,3550 fluorescence intensity (a.u.)
20,AATCAAGGAAGCGGAGGCAGCAAGACCGCGACGAAATCCGCGGAGTCACCTAGTGCAG,13500 fluorescence intensity (a.u.)
21,CTACATACAATATTTAAAACTTGATGCAATCCACGGAACACGGAGTCACCTAGTGCAG,18700 fluorescence intensity (a.u.)

row,Sequence,binding signal
1,TACTCGTATCCATCGATCGGAAGAATCCCAGTCGCCGGCGCGGAGTCACCTAGTGCAG,3230 fluorescence intensity (a.u.)
2,GCAACCTCTACCTCAATGTGTCGTGTCACACCGGAGCTCTCGGAGTCACCTAGTGCAG,7200 fluorescence intensity (a.u.)
3,GTGTTGAGATGATGACAGCACTTATGTACTCTTCTAAAGTCGGAGTCACCTAGTGCAG,3260 fluorescence intensity (a.u.)
4,CGGTGGTAGGCGCGTACGTGTCCCTGTGCAGCGCACCGCGCGGAGTCACCTAGTGCAG,5440 fluorescence intensity (a.u.)
5,TGCATGCATTATGACTTTTGACTTGTGACACATAGTCACACGGAGTCACCTAGTGCAG,3760 fluorescence intensity (a.u.)
6,GCAGAATACAAAATATCCACACTTCCACGTTGCCACAGAGCGGAGTCACCTAGTGCAG,4090 fluorescence intensity (a.u.)
7,TGGGTTTCCGTGTCCAACGTTTGACTGTCCGTCTTATATGCGGAGTCACCTAGTGCAG,3250 fluorescence intensity (a.u.)
8,AGACACCATCGCTCCACCGCTAGATTCAAGCGTCTTCAAGCGGAGTCACCTAGTGCAG,3150 fluorescence intensity (a.u.)
9,CAAGCGCCGACCCTGGTGGCCCGCCCACCTCCTCCCCGACCGGAGTCACCTAGTGCAG,3360 fluorescence intensity (a.u.)
10,GTTTATATGTCAGTTGCTAAGGATATACAACAGGATGATGCGGAGTCACCTAGTGCAG,12300 fluorescence intensity (a.u.)
11,GCATAAATGATGTGTTTCTGAATCCAATTACACACATGATCGGAGTCACCTAGTGCAG,5020 fluorescence intensity (a.u.)
12,TCATAAAGGAAGAGGAATCTACATATCACTAGCTGCAAATCGGAGTCACCTAGTGCAG,4010 fluorescence intensity (a.u.)
13,TGTGTGCTGCTGCGTCATCCCATACGCCTCTGCCCGGTGGCGGAGTCACCTAGTGCAG,15500 fluorescence intensity (a.u.)
14,TCCTCATAGCTGACCAAATCTCTGCTGTGACAGCAATCTCCGGAGTCACCTAGTGCAG,4150 fluorescence intensity (a.u.)
15,CCAGATATCTTTTACTAAAGGATGGAAATGAGGCGTAATTCGGAGTCACCTAGTGCAG,29100 fluorescence intensity (a.u.)
16,ATTTCCACCTGCTCATCTATATCTATCTATCATCAAGCTGCGGAGTCACCTAGTGCAG,4010 fluorescence intensity (a.u.)
17,GAAACAACTCAACCGCAGCAGTTGTCTCGTCTCGTCAGTTCGGAGTCACCTAGTGCAG,3850 fluorescence intensity (a.u.)
18,ATCACGCCAGTCACCACGCTTGGCATATGCTGGTAAATATCGGAGTCACCTAGTGCAG,30400 fluorescence intensity (a.u.)
19,CCTTCGCTCGCCACGTGGCAGCCGCTAGTCCTTATCGCCGCGGAGTCACCTAGTGCAG,37400 fluorescence intensity (a.u.)
20,GGAGCGGCGGCTGCCGTTCTGCGTGCTGAGCGACCGGAGGCGGAGTCACCTAGTGCAG,5460 fluorescence intensity (a.u.)
21,AACAAGATTCGGCCCGCAGGCCACATGCCACGTGCTGCATCGGAGTCACCTAGTGCAG,8640 fluorescence intensity (a.u.)

# 3 records picked at random from the list so far, as already listed:
row,Sequence,binding signal
5,TGCATGCATTATGACTTTTGACTTGTGACACATAGTCACACGGAGTCACCTAGTGCAG,3760 fluorescence intensity (a.u.)
21,AACAAGATTCGGCCCGCAGGCCACATGCCACGTGCTGCATCGGAGTCACCTAGTGCAG,8640 fluorescence intensity (a.u.)
17,GAAACAACTCAACCGCAGCAGTTGTCTCGTCTCGTCAGTTCGGAGTCACCTAGTGCAG,3850 fluorescence intensity (a.u.)
